Results taken from patent publication US8350062B2, “Synthesis and anticancer activity of new actin-targeting small-molecule agents” (priority 2009, dated 2013).

System: 60 different human tumor cell lines
Assay: NCI 60 cell line single dose screen, whole panel
Type: cell-based
Settings: 10 micromolar
Description: Analog 10 was screened utilizing 60 different human tumor cell lines, representing leukemia, melanoma and cancers of the lung, colon, brain, ovary, breast, prostate, and kidney in order to show selective growth inhibition or cell killing of particular tumor cell lines. This screen is unique in that the complexity of a 60 cell line dose response produced by a given compound results in a biological response pattern which can be utilized in pattern recognition algorithms (COMPARE program. See: http://dtp.nci.nih.gov/docs/compare/compare.html). Using these algorithms, it is possible to assign a putative mechanism of action to a test compound, or to determine that the response pattern is unique and not similar to that of any of the standard prototype compounds included in the NCI database. […]
Following drug addition, the plates are incubated for an additional 48 h at 37° C., 5% CO2, 95% air, and 100% relative humidity. […] Bound stain is subsequently solubilized with 10 mM trizma base, and the absorbance is read on an automated plate reader at a wavelength of 515 nm. […] Using the absorbance measurements [time zero, (Tz), control growth, (C), and test growth in the presence of drug (Ti)], the percentage growth is calculated.

Compound: COCCC(=O)NC[C@H](O)[C@H](C)C(=O)NCCC[C@H]1O[C@@]2(CCC[C@@H](CC[C@H](C)/C=C(\C)[C@H](C)O)O2)CCC1C (some centres unmarked) [Analog 10]
- Growth Percent, Delta: 87.55%
- Growth Percent, Range: 151.10%
